Assay results as given in patent US20250215100A1.
Residue numbers refer to the chain shown, from its start. Results are given in words; binding and its absence hold for the method and conditions named. Some binding calls cover weakened binding; strength is not graded here.

B1: PR003379 (antibody, human IgG2, kappa)
heavy: QVQLVQSGAEVKKPGASVKVSCKASGYTFAGYYMYWVRQAPGQGLEWMGWINPDSGAPTYAQKFQGRVTMTRDTSISTAYMELSRLRSDDTAVYYCAREKIYYGSGNYYPSFDYWGQGTLVTVSSASTKGPSVFPLAPCSRSTSESTAALGCLVKDYFPEPVTVSWNSGALTSGVHTFPAVLQSSGLYSLSSVVTVPSSNFGTQTYTCNVDHKPSNTKVDKTVERKCCVECPPCPAPPVAGPSVFLFPPKPKDTLMISRTPEVTCVVVDVSHEDPEVQFNWYVDGVEVHNAKTKPREEQFNSTFRVVSVLTVVHQDWLNGKEYKCKVSNKGLPAPIEKTISKTKGQPREPQVYTLPPSREEMTKNQVSLTCLVKGFYPSDIAVEWESNGQPENNYKTTPPMLDSDGSFFLYSKLTVDKSRWQQGNVFSCSVMHEALHNHYTQKSLSLSPGK
light: DIQLTQSPSFLSASVGDRVTITCRASQGISSYLAWYQQKPGKAPKLLIYAASTLQSGVPSRFSGSGSGTEFTLTISSLQPEDFATYYCQQLNSYPWTFGQGTKVEIKRTVAAPSVFIFPPSDEQLKSGTASVVCLLNNFYPREAKVQWKVDNALQSGNSQESVTEQDSKDSTYSLSSTLTLSKADYEKHKVYACEVTHQGLSSPVTKSFNRGEC
B2: PR006492 (antibody, human IgG1, kappa, V domains shown)
VH: QVQLVQSGAEVKKPGASVKVSCKASGYTFAGYYMYWVRQAPGQGLEWMGWINPDSGAPTYAQKFQGRVTMTRDTSISTAYMELSRLRSDDTAVYYCAREKIYYGSGNYYPSFDYWGQGTLVTVSS
VL: DIQLTQSPSFLSASVGDRVTITCRASQGISSYLAWYQQKPGKAPKLLIYAASTLQSGVPSRFSGSGSGTEFTLTISSLQPEDFATYYCQQLESYPWTFGQGTKVEIKR
B3: PR006493 (antibody, human IgG1, kappa, V domains shown)
VH: B2 VH
VL: B2 VL with E92L
B4: PR006494 (antibody, human IgG1, kappa, V domains shown)
VH: B2 VH
VL: B2 VL with E92T
B5: PR006495 (antibody, human IgG1, kappa, V domains shown)
VH: B2 VH
VL: B2 VL with E92A
B6: PR006496 (antibody, human IgG1, kappa, V domains shown)
VH: B2 VH
VL: B2 VL with E92F
B7: PR006497 (antibody, human IgG1, kappa, V domains shown)
VH: B2 VH
VL: B2 VL with E92Y
B8: PR006498 (antibody, human IgG1, kappa, V domains shown)
VH: B2 VH
VL: B2 VL with E92I
B9: PR006499 (antibody, human IgG1, kappa, V domains shown)
VH: B2 VH
VL: B2 VL with E92W
B10: PR006500 (antibody, human IgG1, kappa, V domains shown)
VH: B2 VH
VL: B2 VL with E92M
B11: PR006501 (antibody, human IgG1, kappa, V domains shown)
VH: B2 VH
VL: B2 VL with E92Q
B12: PR006502 (antibody, human IgG1, kappa, V domains shown)
VH: B2 VH
VL: B2 VL with E92D
B13: PR006503 (antibody, human IgG1, kappa, V domains shown)
VH: B2 VH
VL: B2 VL with E92G
B14: PR006504 (antibody, human IgG1, kappa, V domains shown)
VH: B2 VH
VL: B2 VL with E92V
B15: PR006505 (antibody, human IgG1, kappa, V domains shown)
VH: B2 VH
VL: B2 VL with E92N, S93I
B16: PR006506 (antibody, human IgG1, kappa, V domains shown)
VH: B2 VH
VL: B2 VL with E92N, S93F
B17: PR006507 (antibody, human IgG1, kappa, V domains shown)
VH: B2 VH
VL: B2 VL with E92N, S93E
B18: PR006509 (antibody, human IgG1, kappa, V domains shown)
VH: B2 VH
VL: B2 VL with E92N, S93L
B19: PR006510 (antibody, human IgG1, kappa, V domains shown)
VH: B2 VH
VL: B2 VL with E92N, S93R
B20: PR006511 (antibody, human IgG1, kappa, V domains shown)
VH: B2 VH
VL: B2 VL with E92N, S93N
B21: PR006512 (antibody, human IgG1, kappa, V domains shown)
VH: B2 VH
VL: B2 VL with E92N, S93T
B22: PR006513 (antibody, human IgG1, kappa, V domains shown)
VH: B2 VH
VL: B2 VL with E92N, S93Q
B23: PR006514 (antibody, human IgG1, kappa, V domains shown)
VH: B2 VH
VL: B2 VL with E92N, S93V
B24: PR006515 (antibody, human IgG1, kappa, V domains shown)
VH: B2 VH
VL: B2 VL with E92N, S93M
B25: PR006516 (antibody, human IgG1, kappa, V domains shown)
VH: B2 VH
VL: B2 VL with E92N, S93H

molecular target: cynomolgus monkey CD40 on cells (cynomolgus monkey) (UniProt G7PG38); experiment: FACS, CHO-K1/cyCD40 cells

binding, binds:
B1
B2
B3
B4
B5
B6
B7
B8
B9
B10
B11
B12
B13
B14
B15
B16
B17
B18
B19
B20
B21
B22
B23
B24
B25
